Measured values: article PMC3511559
These are yes or no findings as the source states them, for the method shown. Binding seen in cells or lysates may run through a third protein. Some results given as binding are weak or reduced against the parent protein; the word gives no strength.

The chains behind the UniProt entries cited, without tags or fusion partners.
UniProt P60903: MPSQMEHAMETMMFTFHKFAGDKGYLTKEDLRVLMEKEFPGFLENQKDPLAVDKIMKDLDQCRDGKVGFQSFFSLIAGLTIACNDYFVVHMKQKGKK
UniProt P07355: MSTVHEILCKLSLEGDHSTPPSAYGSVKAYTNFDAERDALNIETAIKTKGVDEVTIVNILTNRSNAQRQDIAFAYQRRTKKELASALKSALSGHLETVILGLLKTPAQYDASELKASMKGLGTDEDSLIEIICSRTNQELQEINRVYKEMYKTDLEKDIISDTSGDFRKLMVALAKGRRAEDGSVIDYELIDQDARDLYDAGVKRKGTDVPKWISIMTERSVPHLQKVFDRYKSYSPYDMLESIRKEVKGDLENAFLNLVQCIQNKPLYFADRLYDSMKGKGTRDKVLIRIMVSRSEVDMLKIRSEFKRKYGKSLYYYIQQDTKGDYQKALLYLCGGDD

Target: S100A10 (human (endogenous in TIME, MCF7 and A549 cells)) (UniProt P60903)
Assay: co-IP; non-nuclear fractions of TIME, MCF7 and A549 cells, untreated or treated with 10 Gy IR or 1 mM H2O2 for 2 hours; immunoprecipitation with antibodies against annexin A2 or S100A10 and protein G-Sepharose, western blot

binding: binds
Substance: annexin A2 (from UniProt P07355 1-339)
